# Data taken from paper PMC3820265.
# By UniProt entry, the sequences of proteins in these tests, tags left out. Residues count along the entry.
# UniProt Q684R7, residues 30-2191: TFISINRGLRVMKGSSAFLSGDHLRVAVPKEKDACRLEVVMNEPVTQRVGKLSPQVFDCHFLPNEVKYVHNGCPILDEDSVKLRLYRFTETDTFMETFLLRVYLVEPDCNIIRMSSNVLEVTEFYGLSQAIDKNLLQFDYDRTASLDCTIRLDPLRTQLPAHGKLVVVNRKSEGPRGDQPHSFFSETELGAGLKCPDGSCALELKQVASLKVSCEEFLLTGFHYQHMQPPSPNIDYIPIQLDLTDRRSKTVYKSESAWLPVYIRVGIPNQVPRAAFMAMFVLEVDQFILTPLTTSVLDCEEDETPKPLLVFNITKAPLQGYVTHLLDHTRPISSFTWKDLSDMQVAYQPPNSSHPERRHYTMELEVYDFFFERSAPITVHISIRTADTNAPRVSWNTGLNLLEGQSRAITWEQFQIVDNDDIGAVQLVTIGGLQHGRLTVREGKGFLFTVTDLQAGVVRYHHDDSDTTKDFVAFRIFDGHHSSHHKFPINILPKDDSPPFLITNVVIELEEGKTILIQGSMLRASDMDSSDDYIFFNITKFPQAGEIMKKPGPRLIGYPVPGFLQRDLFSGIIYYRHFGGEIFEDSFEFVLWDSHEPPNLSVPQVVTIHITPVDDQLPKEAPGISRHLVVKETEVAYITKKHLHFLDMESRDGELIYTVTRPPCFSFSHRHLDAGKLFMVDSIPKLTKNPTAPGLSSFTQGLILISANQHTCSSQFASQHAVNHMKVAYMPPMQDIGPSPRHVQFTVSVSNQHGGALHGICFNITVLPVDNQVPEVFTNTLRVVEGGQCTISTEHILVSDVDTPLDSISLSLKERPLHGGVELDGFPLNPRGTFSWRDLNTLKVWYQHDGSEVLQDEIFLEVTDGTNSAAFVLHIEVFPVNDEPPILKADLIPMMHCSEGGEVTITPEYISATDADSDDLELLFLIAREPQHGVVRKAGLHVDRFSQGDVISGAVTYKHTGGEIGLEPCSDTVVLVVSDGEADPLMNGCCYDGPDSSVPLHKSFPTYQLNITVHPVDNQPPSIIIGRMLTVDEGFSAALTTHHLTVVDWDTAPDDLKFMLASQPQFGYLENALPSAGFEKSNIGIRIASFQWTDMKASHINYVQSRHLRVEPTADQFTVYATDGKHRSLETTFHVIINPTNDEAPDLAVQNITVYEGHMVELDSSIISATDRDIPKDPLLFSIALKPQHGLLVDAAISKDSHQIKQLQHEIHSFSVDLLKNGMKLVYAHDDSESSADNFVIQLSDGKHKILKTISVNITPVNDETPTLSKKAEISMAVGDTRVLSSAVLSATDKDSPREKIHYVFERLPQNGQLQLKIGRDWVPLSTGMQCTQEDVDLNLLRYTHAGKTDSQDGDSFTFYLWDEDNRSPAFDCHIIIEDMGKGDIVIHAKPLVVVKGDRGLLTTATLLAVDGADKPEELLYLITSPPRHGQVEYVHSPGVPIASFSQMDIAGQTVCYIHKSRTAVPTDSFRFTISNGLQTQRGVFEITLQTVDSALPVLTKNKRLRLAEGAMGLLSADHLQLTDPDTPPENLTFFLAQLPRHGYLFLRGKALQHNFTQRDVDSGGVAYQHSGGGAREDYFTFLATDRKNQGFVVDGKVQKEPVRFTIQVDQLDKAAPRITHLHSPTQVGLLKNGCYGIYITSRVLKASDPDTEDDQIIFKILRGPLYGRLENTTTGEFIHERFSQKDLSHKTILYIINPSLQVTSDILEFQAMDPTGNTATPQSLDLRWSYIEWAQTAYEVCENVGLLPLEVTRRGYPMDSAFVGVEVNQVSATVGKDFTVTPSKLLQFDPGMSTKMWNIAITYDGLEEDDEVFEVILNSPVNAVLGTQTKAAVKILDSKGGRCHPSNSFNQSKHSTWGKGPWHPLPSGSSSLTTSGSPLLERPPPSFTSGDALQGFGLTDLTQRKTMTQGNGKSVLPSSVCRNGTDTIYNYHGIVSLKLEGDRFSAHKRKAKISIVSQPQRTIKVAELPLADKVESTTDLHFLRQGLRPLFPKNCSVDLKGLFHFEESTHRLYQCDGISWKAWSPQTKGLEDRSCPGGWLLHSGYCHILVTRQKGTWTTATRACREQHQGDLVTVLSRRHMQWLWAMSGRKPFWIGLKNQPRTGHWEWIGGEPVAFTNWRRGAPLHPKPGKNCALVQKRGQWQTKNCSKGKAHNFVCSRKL
# UniProt Q8CI19, residues 23-345: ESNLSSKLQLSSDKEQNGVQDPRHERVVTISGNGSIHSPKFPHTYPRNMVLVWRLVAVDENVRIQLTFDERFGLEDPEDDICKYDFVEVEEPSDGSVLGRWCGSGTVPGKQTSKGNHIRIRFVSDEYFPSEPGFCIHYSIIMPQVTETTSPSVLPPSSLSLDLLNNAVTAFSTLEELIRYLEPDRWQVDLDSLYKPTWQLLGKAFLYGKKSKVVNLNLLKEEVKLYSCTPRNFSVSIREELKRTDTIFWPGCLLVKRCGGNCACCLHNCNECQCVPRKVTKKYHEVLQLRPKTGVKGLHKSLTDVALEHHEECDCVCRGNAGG
# Results are given in words; binding and its absence hold for the method and conditions named. Binding seen in cells or lysates may run through a third protein. Some binding calls cover weakened binding; strength is not graded here.
# Experiments:
# [1] = target: full-length FREM1-FLAG (Fras1-related extracellular matrix protein 1) (mouse) (UniProt Q684R7); assay: co-IP; reciprocal: HEK293 cells co-transfected; immunoprecipitation with rabbit anti-FREM1 polyclonal antibody, PDGFC detected in the immunoprecipitates
# [2] = target: endogenous FREM1 (mouse (endogenous in E12.5 embryos)) (UniProt Q684R7); assay: co-IP; endogenous proteins; rabbit anti-FREM1 or pre-immune serum, 2 mg of total embryo protein lysate (E12.5)
# PDGFC-V5 (mouse) = PDGFC-V5 (mouse) (UniProt Q8CI19); assay: co-IP; HEK293 cells co-transfected; pre-cleared lysate supernatants, immunoprecipitation with mouse V5 antibody (PDGFC-V5) overnight, protein A- or G-sepharose, western blot for FLAG or MYC
substance,measurement,setting,value
PDGFC-V5 (from UniProt Q8CI19 23-345) (ligand),binding,[1],binds
endogenous PDGFC (from UniProt Q8CI19 23-345) (ligand),binding,[2],binds
full-length FREM1-FLAG (Fras1-related extracellular matrix protein 1) (from UniProt Q684R7 30-2191),binding,PDGFC-V5 (mouse),binds
